For experiment [1], the target named is T1, CUB and zona pellucida-like domain-containing protein 1 (CUZD1), endogenous in HC11 cells (mouse (endogenous in HC11)) (UniProt P70412).
T1 sequence: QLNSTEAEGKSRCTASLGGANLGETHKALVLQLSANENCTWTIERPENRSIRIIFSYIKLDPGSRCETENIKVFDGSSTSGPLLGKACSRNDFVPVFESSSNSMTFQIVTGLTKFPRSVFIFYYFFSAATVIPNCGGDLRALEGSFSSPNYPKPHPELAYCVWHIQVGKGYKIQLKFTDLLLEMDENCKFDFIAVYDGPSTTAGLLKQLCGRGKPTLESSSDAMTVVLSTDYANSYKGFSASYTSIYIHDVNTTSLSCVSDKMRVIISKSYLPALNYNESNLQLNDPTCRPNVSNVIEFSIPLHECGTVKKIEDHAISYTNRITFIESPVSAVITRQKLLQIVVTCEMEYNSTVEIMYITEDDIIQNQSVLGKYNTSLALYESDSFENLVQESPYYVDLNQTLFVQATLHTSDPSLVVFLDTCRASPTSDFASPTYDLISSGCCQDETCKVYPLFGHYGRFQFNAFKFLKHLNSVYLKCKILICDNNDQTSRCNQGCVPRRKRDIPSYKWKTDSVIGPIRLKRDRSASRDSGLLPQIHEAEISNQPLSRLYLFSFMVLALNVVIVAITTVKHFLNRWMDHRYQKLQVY
The experiment is described as follows: co-IP; HC11 cells, 48 h serum-free then 10% FBS for 24 h; lysate immunoprecipitated with CUZD1 antibody or IgG control; Western blot for CUZD1, JAK1, JAK2, pSTAT5. A general note: In western blotting, separated proteins are transferred to a membrane and probed.

By UniProt entry, the sequences of proteins in these tests, tags left out.
UniProt P52332: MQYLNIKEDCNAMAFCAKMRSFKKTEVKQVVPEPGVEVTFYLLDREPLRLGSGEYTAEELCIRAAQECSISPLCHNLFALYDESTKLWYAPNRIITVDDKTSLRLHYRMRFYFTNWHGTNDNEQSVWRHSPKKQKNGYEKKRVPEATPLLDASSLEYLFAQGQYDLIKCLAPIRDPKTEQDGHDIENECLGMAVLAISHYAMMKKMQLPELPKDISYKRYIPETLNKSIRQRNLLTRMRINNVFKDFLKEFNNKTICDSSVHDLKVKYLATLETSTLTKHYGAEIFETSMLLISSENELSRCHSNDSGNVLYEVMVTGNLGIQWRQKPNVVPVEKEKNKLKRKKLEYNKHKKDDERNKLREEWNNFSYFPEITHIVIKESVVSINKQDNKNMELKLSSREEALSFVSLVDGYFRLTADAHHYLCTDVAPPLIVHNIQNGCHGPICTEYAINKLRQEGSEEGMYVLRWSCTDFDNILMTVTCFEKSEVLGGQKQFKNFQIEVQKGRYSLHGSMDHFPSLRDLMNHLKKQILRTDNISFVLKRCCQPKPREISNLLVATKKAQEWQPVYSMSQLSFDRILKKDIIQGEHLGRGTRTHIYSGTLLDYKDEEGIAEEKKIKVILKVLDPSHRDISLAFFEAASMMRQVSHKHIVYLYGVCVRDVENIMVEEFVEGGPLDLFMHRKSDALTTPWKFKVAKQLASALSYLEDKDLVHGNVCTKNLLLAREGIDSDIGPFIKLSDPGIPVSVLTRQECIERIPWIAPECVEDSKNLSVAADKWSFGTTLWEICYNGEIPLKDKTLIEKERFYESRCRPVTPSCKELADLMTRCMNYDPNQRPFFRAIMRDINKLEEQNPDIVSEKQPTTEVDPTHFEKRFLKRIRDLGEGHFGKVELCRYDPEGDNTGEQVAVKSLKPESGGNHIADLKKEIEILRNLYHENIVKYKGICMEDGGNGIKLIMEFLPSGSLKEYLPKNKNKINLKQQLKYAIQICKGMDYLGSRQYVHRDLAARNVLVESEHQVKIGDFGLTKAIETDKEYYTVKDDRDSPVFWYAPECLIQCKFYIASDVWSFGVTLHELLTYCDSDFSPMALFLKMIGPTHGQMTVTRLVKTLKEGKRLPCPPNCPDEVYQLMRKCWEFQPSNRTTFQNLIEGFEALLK
UniProt Q62120: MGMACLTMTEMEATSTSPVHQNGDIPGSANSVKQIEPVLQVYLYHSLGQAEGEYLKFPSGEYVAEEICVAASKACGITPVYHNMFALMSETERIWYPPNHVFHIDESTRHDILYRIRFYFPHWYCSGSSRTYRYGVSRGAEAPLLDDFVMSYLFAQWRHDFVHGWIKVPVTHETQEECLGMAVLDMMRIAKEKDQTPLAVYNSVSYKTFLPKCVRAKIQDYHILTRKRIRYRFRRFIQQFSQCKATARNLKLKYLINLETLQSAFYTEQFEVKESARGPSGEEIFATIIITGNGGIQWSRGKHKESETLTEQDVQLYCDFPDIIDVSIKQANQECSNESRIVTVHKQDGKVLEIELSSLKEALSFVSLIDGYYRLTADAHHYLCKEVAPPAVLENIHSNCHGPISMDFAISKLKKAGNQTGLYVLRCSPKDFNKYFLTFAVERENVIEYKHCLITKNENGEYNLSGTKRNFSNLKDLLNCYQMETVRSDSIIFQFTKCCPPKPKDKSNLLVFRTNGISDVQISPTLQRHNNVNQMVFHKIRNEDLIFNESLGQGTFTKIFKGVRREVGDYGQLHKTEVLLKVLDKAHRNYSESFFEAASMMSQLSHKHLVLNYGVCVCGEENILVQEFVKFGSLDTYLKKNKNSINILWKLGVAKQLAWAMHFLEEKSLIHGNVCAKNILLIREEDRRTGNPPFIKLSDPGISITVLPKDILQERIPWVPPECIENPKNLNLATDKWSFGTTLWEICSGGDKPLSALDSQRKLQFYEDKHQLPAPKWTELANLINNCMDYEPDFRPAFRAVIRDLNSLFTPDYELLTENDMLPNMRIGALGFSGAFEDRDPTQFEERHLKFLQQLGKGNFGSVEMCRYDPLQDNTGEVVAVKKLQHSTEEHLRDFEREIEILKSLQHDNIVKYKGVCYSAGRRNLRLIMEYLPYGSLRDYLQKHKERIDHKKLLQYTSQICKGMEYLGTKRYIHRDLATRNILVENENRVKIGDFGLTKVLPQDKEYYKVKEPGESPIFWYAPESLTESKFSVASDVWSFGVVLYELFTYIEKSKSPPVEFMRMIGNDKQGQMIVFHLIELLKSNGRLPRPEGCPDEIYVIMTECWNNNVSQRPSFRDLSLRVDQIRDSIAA

Experiment [2] concerns the target T2, 3xFLAG-CUZD1 (recombinant FLAG epitope-tagged CUZD1) (UniProt P70412).
T2 sequence: T1 sequence
The experiment can be described thus: co-IP; HC11-3xFLAG-Cuzd1 cells cultured with FBS, EGF and PRL for 6 h; precleared lysate, anti-FLAG M2 or mouse IgG control resin, elution with 3xFLAG peptide; Western blot for FLAG, JAK1, JAK2, pSTAT5.

Results are given in words; binding and its absence hold for the method and conditions named. Binding seen in cells or lysates may run through a third protein. Some binding calls cover weakened binding; strength is not graded here. Tags and fused reporters may be left off the sequences shown.

For the substance “Janus tyrosine kinase 1 (JAK1) (from UniProt P52332 1-1153)”, the binding result in experiment [1] and in experiment [2] was “binds” throughout.

Take “Janus tyrosine kinase 2 (JAK2) (from UniProt Q62120 1-1132)”: the binding entry in experiment [1] and in experiment [2] was “binds” throughout.

The record behind these values is publication PMC5363987.
